Reference: US20260140098A1, “METHOD FOR TREATING PLASMA SAMPLE CONTAINING (7aS,2'S)-2-OXO-CLOPIDOGREL AND METHOD FOR DETERMINING THE SAME” (CHENGDU SHIBEIKANG BIOMEDICAL TECHNOLOGY CO., LTD., priority 2021, published 2026)
“And” between values parts separate entries of the source, which are not always exact repeats. Equal entries are not always repeated. The source gives many values for each of these; only a part stands here.

Key:
[1] = Stability of (7aS,2′S)-2-oxo-clopidogrel in plasma at −80° C., screening of reducing agent type (Example 5); format: in vitro ADME
Method: (§1) S2. Plasma sample pre-treatment: taking 100 μl of the plasma, adding 5 μl of an internal standard working solution and 300 μl of acetonitrile respectively; after vortex mixing, centrifuging at 2-8° C. and 10,000 r/min for 10 min, and collecting the supernatant for later use.
(§2) S3. LC-MS/MS analysis: injecting 10 μl of the supernatant prepared from step S2 for determination, where the liquid chromatography conditions are: • the chromatographic column is Kinetex® 1.7 μm C18 100 A 100×2.1 mm; the column temperature is 40° C.; the mobile phase is acetonitrile-0.2% aqueous formic acid solution with a flow rate of 0.2 ml/min; and a gradient elution is carried out as specified in the table below:
(§3) ESI ion source, positive ion detection in multiple reaction monitoring mode (MRM); the quantitatively analyzed ions (7aS,2′S)-2-oxo-clopidogrel: m/z 338.100→155.000, IS: m/z 341.100→158.000, a capillary voltage of 4.0 KV, a cone voltage of 25 V, a desolvation gas temperature of 400° C. and a source temperature of 150° C. The optimal collision energy is 20 eV.
Blank plasma was taken and different antioxidants (DTT, TCEP, ME) were added to prepare plasma containing an antioxidant at a concentration of 100 mg/ml. Subsequently, standard series solution of (7aS,2′S)-2-oxo-clopidogrel was added separately to prepare quality control samples with two concentrations of (7aS,2′S)-2-oxo-clopidogrel (0.1 and 12.0 ng/ml), 3 samples for each concentration. They were placed in a refrigerator at −80° C., and the plasma samples at different placing time points were taken to examine the stability by pre-treating the plasma samples according to the method of S2 of Example 1, followed by LC/MS/MS determination according to the method of S3.

[2] = Stability of (7aS,2′S)-2-oxo-clopidogrel in plasma containing the reducing agent (Example 8); format: in vitro ADME, human; conditions: plasma with reducing agent; for Measured concentration: single replicates
Method: S1. Whole blood treatment: taking 3 ml of human whole blood anticoagulated with EDTA-K2 after oral administration of (7aS,2′S)-2-oxo-clopidogrel, cooling to 4° C. on ice, then adding thereto 60 μl of tris(2-carboxyethyl) phosphine at 100 mg/ml; shaking well and then centrifuging (2-8° C., 3000 rpm for 10 min), and collecting plasma for later use.
as §1, §2, §3
Blank plasma was taken and operated according to S1 of Example 1 to obtain a blank plasma containing the reducing agent. Subsequently, a standard series solution of (7aS,2′S)-2-oxo-clopidogrel was added to prepare quality control samples containing (7aS,2′S)-2-oxo-clopidogrel at concentrations of 0.1 and 12 ng/ml. The plasma samples were examined for stability after ice box short-term placement, stability after room temperature short-term placement, stability after freeze-thaw cycle and stability after long-term cryopreservation.
The plasma samples at different placing time points were taken to examine the stability by pre-treating the plasma samples according to the method of S2 of Example 1, followed by LC/MS/MS determination according to the method of S3.

[3] = placing below −60° C. for 36 days, theoretical 12.0 ng/mL
[4] = placing in ice box for 4 h, theoretical 0.1 ng/mL

COC(=O)[C@H](c1ccccc1Cl)N1CC[C@@H]2SC(=O)C=C2C1 [(7aS,2′S)-2-oxo-clopidogrel, methyl(S)-2-(2-chlorophenyl)-2-((S)-2-oxo-2,6,7,7a-tetrahydrothieno[3,2-c]pyridin-5 (4H)-yl)acetate]
Measured value ([1]; DTT 100 mg/ml, theoretical 0.1 ng/mL, day 0): 0.1022 ng/mL | Measured value ([1]; DTT 100 mg/ml, theoretical 0.1 ng/mL, day 10): 0.1033 ng/mL | Measured value ([1]; DTT 100 mg/ml, theoretical 0.1 ng/mL, day 30): 0.0955 ng/mL | Measured value ([1]; DTT 100 mg/ml, theoretical 0.1 ng/mL, day 60): 0.0899 ng/mL | Measured value ([1]; DTT 100 mg/ml, theoretical 12.0 ng/mL, day 0): 12.1435 ng/mL | Measured value ([1]; DTT 100 mg/ml, theoretical 12.0 ng/mL, day 10): 12.0024 ng/mL | Measured value ([1]; DTT 100 mg/ml, theoretical 12.0 ng/mL, day 30): 11.8674 ng/mL | Measured value ([1]; DTT 100 mg/ml, theoretical 12.0 ng/mL, day 60): 11.0928 ng/mL | Measured value ([1]; ME 100 mg/ml, theoretical 0.1 ng/mL, day 0): 0.1022 ng/mL | Measured value ([1]; ME 100 mg/ml, theoretical 0.1 ng/mL, day 10): 0.1006 ng/mL | Measured value ([1]; ME 100 mg/ml, theoretical 0.1 ng/mL, day 30): 0.0915 ng/mL | Measured value ([1]; ME 100 mg/ml, theoretical 0.1 ng/mL, day 60): 0.0866 ng/mL | Measured value ([1]; ME 100 mg/ml, theoretical 12.0 ng/mL, day 0): 12.1435 ng/mL | Measured value ([1]; ME 100 mg/ml, theoretical 12.0 ng/mL, day 10): 11.9024 ng/mL | Measured value ([1]; ME 100 mg/ml, theoretical 12.0 ng/mL, day 30): 11.5744 ng/mL | Measured value ([1]; ME 100 mg/ml, theoretical 12.0 ng/mL, day 60): 10.5488 ng/mL | Measured value ([1]; TCEP 100 mg/ml, theoretical 0.1 ng/mL, day 0): 0.1022 ng/mL | Measured value ([1]; TCEP 100 mg/ml, theoretical 0.1 ng/mL, day 10): 0.1053 ng/mL | Measured value ([1]; TCEP 100 mg/ml, theoretical 0.1 ng/mL, day 30): 0.0993 ng/mL | Measured value ([1]; TCEP 100 mg/ml, theoretical 0.1 ng/mL, day 60): 0.1008 ng/mL | Measured value ([1]; TCEP 100 mg/ml, theoretical 12.0 ng/mL, day 0): 12.1435 ng/mL | Measured value ([1]; TCEP 100 mg/ml, theoretical 12.0 ng/mL, day 10): 12.0566 ng/mL | Measured value ([1]; TCEP 100 mg/ml, theoretical 12.0 ng/mL, day 30): 12.2674 ng/mL | Measured value ([1]; TCEP 100 mg/ml, theoretical 12.0 ng/mL, day 60): 12.0928 ng/mL | Measured concentration ([2]; placing below −60° C. for 36 days, theoretical 0.1 ng/mL): 0.0987 ng/mL and 0.0933 ng/mL | Average measured concentration [2, 3]: 11.7299 ng/mL | Measured concentration [2, 3]: 11.6573 ng/mL and 11.9738 ng/mL and 11.7638 ng/mL and 11.8026 ng/mL and 11.4518 ng/mL | Average measured concentration [2, 4]: 0.1000 ng/mL | Measured concentration [2, 4]: 0.0993 ng/mL and 0.1020 ng/mL
